# The supplement of paper PMC8728848
# The list shows a part of the results.
# B1: PX9937I-bfa-538-26-538 (Bacteroides fragilis) (protein)
# chain: DKLDLSPIDYYGSGSYWKTEAQATAYIDGIHKHLRDAAWQHTITFGELRGGRFITGASSDGMGVSNGDIILQNFDETHTGVSKFGDLFGRITNLNLFIARVTDATYLSDEMKNFYLGEVYGLRAFYYFDLYRIYGGVPLRLTADVVEGVIDPNKLYMARSTPKEVMTQIKSDLNKSMEYFGNMNDFDPYKRGKKVYWSKAATECLMGEVYLWTSKVTTGDDVANPADLTIAKTHLESVLNNYNLKMLDDFSQVFNAKNKANDEIIFAIRFLEGEATNSNGTFTYNVGTGSTKNRYQANGEVFGDALDIQNTGNQTYEYNKAVYQNFDDADTRKEATFIASYNKDGKTGELSLYGTHVRKNIGYVNAQGARVYCGDYIFYRLPWVYLTLAEIANMEGDNAAVAKYINLVRKRAYGNAWDETLYAYPETADFTTNELAILHEKDKEFIQEGQRWWDLRRMTLTKGGTPLVFCKEGSLLGDAPILNKSTEAHKLLWPIEKTMLNKDPALEQTPGYK
# How the values were obtained:
# Assay in all cases: glycan array binding signal (z-score within array); higher = stronger binding
# Conditions in all cases: glycan notation: IUPAC condensed, linker removed
# [1] = target: GlcNAc(b1-4)GlcNAc(b1-4)GlcNAc(b1-4)GlcNAc(b1-4)GlcNAc(b1-4)GlcNAc
# How it was run: (§1)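 Glycan array binding is given as a within-array Z-score, which can be read as non-binding when negative. The arrays, 3228 of them, came from the Consortium for Functional Glycomics database and were retained only where the protein sequence was available. Z-scores were averaged across arrays of the same protein sequence at different concentrations or buffers and across linkers.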
# [2] = target: GlcNAc(b1-4)[GlcNAc(b1-6)]GalNAc
# How it was run: as §1
# [3] = target: GlcNAc(b1-6)Gal(b1-4)GlcNAc
# How it was run: as §1
# GlcNAc(b1-6)GalNAc = target: GlcNAc(b1-6)GalNAc
# How it was run: as §1
# [4] = target: GlcNAc6S(b1-3)Gal(b1-4)GlcNAc
# How it was run: as §1
# Kdn(a2-3)Gal(b1-3)GalNAc = target: Kdn(a2-3)Gal(b1-3)GalNAc
# How it was run: as §1
# Kdn(a2-3)Gal(b1-3)GlcNAc = target: Kdn(a2-3)Gal(b1-3)GlcNAc
# How it was run: as §1
# Kdn(a2-3)Gal(b1-4)Glc = target: Kdn(a2-3)Gal(b1-4)Glc
# How it was run: as §1
# Kdn(a2-3)Gal(b1-4)GlcNAc = target: Kdn(a2-3)Gal(b1-4)GlcNAc
# How it was run: as §1
# [5] = target: Kdn(a2-3)Gal(b1-4)[Fuc(a1-3)]GlcNAc
# How it was run: as §1
# Kdn(a2-6)Gal(b1-4)GlcNAc = target: Kdn(a2-6)Gal(b1-4)GlcNAc
# How it was run: as §1
# [6] = target: Man(a1-2)Man(a1-2)Man(a1-3)Man
# How it was run: as §1
# [7] = target: Man(a1-2)Man(a1-2)Man(a1-6)[Man(a1-3)]Man
# How it was run: as §1
# Man(a1-2)Man(a1-3)Man = target: Man(a1-2)Man(a1-3)Man
# How it was run: as §1
# [8] = target: Man(a1-2)Man(a1-3)[Man(a1-2)Man(a1-6)]Man
# How it was run: as §1
# [9] = target: Man(a1-2)Man(a1-3)[Man(a1-2)Man(a1-6)]Man(a1-6)[Man(a1-2)Man(a1-2)Man(a1-3)]Man
# How it was run: as §1
# [10] = target: Man(a1-2)Man(a1-3)[Man(a1-2)Man(a1-6)]Man(a1-6)[Man(a1-2)Man(a1-2)Man(a1-3)]Man(b1-4)GlcNAc(b1-4)GlcNAc
# How it was run: as §1
# [11] = target: Man(a1-2)Man(a1-3)[Man(a1-6)]Man(a1-6)[Man(a1-2)Man(a1-3)]Man(b1-4)GlcNAc(b1-4)GlcNAc
# How it was run: as §1
# [12] = target: Man(a1-2)Man(a1-6)[Man(a1-3)]Man(a1-6)[Man(a1-2)Man(a1-2)Man(a1-3)]Man
# How it was run: as §1
# [13] = target: Man(a1-2)Man(a1-6)[Man(a1-3)]Man(a1-6)[Man(a1-2)Man(a1-2)Man(a1-3)]Man(b1-4)GlcNAc(b1-4)GlcNAc
# How it was run: as §1
# Man(a1-3)[Man(a1-6)]Man = target: Man(a1-3)[Man(a1-6)]Man
# How it was run: as §1
# [14] = target: Man(a1-3)[Man(a1-6)]Man(a1-6)[Man(a1-2)Man(a1-3)]Man(b1-4)GlcNAc(b1-4)GlcNAc
# How it was run: as §1
# [15] = target: Man(a1-3)[Man(a1-6)]Man(a1-6)[Man(a1-3)]Man
# How it was run: as §1
# [16] = target: Man(a1-3)[Man(a1-6)]Man(a1-6)[Man(a1-3)]Man(b1-4)GlcNAc(b1-4)GlcNAc
# How it was run: as §1
# [17] = target: Man(a1-3)[Man(a1-6)]Man(b1-4)GlcNAc(b1-4)GlcNAc
# How it was run: as §1
# [18] = target: Man(a1-3)[Man(a1-6)]Man(b1-4)GlcNAc(b1-4)[Fuc(a1-6)]GlcNAc
# How it was run: as §1
# Man(a1-6)Man = target: Man(a1-6)Man
# How it was run: as §1
# Man(b1-4)GlcNAc = target: Man(b1-4)GlcNAc
# How it was run: as §1
# MurNAc(b1-4)GlcNAc = target: MurNAc(b1-4)GlcNAc
# How it was run: as §1
# Neu5Ac(a2-3)Gal = target: Neu5Ac(a2-3)Gal
# How it was run: as §1
# [19] = target: Neu5Ac(a2-3)Gal(b1-3)GalNAc
# How it was run: as §1
# [20] = target: Neu5Ac(a2-3)Gal(b1-3)GalNAc(b1-3)Gal(a1-4)Gal(b1-4)Glc
# How it was run: as §1
# [21] = target: Neu5Ac(a2-3)Gal(b1-3)GalNAc(b1-4)[Neu5Ac(a2-3)]Gal(b1-4)Glc
# How it was run: as §1
# [22] = target: Neu5Ac(a2-3)Gal(b1-3)GalNAc(b1-4)[Neu5Ac(a2-8)Neu5Ac(a2-3)]Gal(b1-4)Glc
# How it was run: as §1
# [23] = target: Neu5Ac(a2-3)Gal(b1-3)GalNAc6S
# How it was run: as §1
# [24] = target: Neu5Ac(a2-3)Gal(b1-3)GlcNAc
# How it was run: as §1
# [25] = target: Neu5Ac(a2-3)Gal(b1-3)GlcNAc(b1-2)Man
# How it was run: as §1
binder,measurement,setting,value
B1,glycan array binding signal (z-score),[1],-0.198
same,glycan array binding signal (z-score),[2],-0.626
same,glycan array binding signal (z-score),[3],-0.683
same,glycan array binding signal (z-score),GlcNAc(b1-6)GalNAc,0.252
same,glycan array binding signal (z-score),[4],-0.071
same,glycan array binding signal (z-score),Kdn(a2-3)Gal(b1-3)GalNAc,0.601
same,glycan array binding signal (z-score),Kdn(a2-3)Gal(b1-3)GlcNAc,0.185
same,glycan array binding signal (z-score),Kdn(a2-3)Gal(b1-4)Glc,-0.098
same,glycan array binding signal (z-score),Kdn(a2-3)Gal(b1-4)GlcNAc,-0.847
same,glycan array binding signal (z-score),[5],-0.984
same,glycan array binding signal (z-score),Kdn(a2-6)Gal(b1-4)GlcNAc,-0.612
same,glycan array binding signal (z-score),[6],0.241
same,glycan array binding signal (z-score),[7],-1.28
same,glycan array binding signal (z-score),Man(a1-2)Man(a1-3)Man,-0.285
same,glycan array binding signal (z-score),[8],-0.189
same,glycan array binding signal (z-score),[9],0.681
same,glycan array binding signal (z-score),[10],-0.508
same,glycan array binding signal (z-score),[11],-0.422
same,glycan array binding signal (z-score),[12],-0.643
same,glycan array binding signal (z-score),[13],-0.434
same,glycan array binding signal (z-score),Man(a1-3)[Man(a1-6)]Man,0.95
same,glycan array binding signal (z-score),[14],0.262
same,glycan array binding signal (z-score),[15],1.93
same,glycan array binding signal (z-score),[16],-0.112
same,glycan array binding signal (z-score),[17],-0.238
same,glycan array binding signal (z-score),[18],0.485
same,glycan array binding signal (z-score),Man(a1-6)Man,-0.362
same,glycan array binding signal (z-score),Man(b1-4)GlcNAc,2.04
same,glycan array binding signal (z-score),MurNAc(b1-4)GlcNAc,-0.733
same,glycan array binding signal (z-score),Neu5Ac(a2-3)Gal,0.196
same,glycan array binding signal (z-score),[19],-0.717
same,glycan array binding signal (z-score),[20],-1
same,glycan array binding signal (z-score),[21],-0.247
same,glycan array binding signal (z-score),[22],0.916
same,glycan array binding signal (z-score),[23],0.703
same,glycan array binding signal (z-score),[24],-0.606
same,glycan array binding signal (z-score),[25],-0.689

# At a glance, part of the list above.
binder,measurement,setting,value
B1,glycan array binding signal (z-score),Man(a1-2)Man(a1-3)Man,-0.285
same,glycan array binding signal (z-score),[8],-0.189
same,glycan array binding signal (z-score),[9],0.681
same,glycan array binding signal (z-score),[10],-0.508
same,glycan array binding signal (z-score),[11],-0.422
same,glycan array binding signal (z-score),[12],-0.643
same,glycan array binding signal (z-score),[13],-0.434
